# Whole data set: some 33,000 sequences, median “E-score (-0.5 to 0.5)” near -0.0034, cut for the highest 2% near 0.25. Some of the results follow.
# Target: T1, Yap3 (UniProt P38749)
# T1 sequence: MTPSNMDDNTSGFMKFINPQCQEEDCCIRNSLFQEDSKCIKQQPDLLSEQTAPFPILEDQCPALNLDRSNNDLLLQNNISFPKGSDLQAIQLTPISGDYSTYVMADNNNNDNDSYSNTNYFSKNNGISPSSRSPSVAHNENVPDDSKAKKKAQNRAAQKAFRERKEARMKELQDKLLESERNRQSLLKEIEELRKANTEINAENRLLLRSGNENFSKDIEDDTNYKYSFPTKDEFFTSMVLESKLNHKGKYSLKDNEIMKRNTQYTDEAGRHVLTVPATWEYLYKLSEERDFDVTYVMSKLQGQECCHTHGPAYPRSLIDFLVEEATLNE
# Test: PBM E-score (8-mer binding enrichment) (E-score (-0.5 to 0.5)); higher = stronger / more preferred TF binding
# Conditions: protein concentration: 100 nM; construct: GST-full length
# Summary of the method: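 E-scores (a modified Wilcoxon-Mann-Whitney statistic) were assigned by the Universal PBM Analysis Suite to every ungapped eight-base word pooled with its reverse complement. The input came from universal all-10-mer Agilent arrays made double-stranded by primer extension and probed with GST-tagged yeast transcription factors at about 100-200 nM. Fluorescent anti-GST detected bound protein, and masliner normalised the scans.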
row,Sequence,PBM E-score
1,CCAGCAGG,-0.337
2,CCCAGGAC,-0.304
3,GATTCCAA,0.00949
4,ATACTATC,0.113
5,GCGTGCCA,-0.122
6,TATGACCA,0.112
7,CGTGTAAG,-0.0107
8,AGTAGACG,0.102
9,ACGCTATC,0.109
10,AATACTAC,0.202
11,CCTCCGTC,-0.25
12,GAAGTGTA,-0.11
13,ACGGTCAT,0.0848
14,CGGGAAAG,-0.113
15,ACATGTAC,0.112
16,CGCATTTC,0.146
17,CTTCTGTC,0.0152
18,CTCTGACC,-0.31
19,AAACTAAA,0.261
20,ACAGCTAC,-0.0945
21,GAAGAAAC,0.16
22,CTAATGTA,0.148
23,GGCTAACC,-0.132
24,GCTCGTCA,-0.23
25,CCGGAAAG,-0.139

row,Sequence,PBM E-score
1,CATCGCTA,0.0613
2,TGTAAACA,0.0376
3,ATAACGCA,0.189
4,TAACCACA,0.155
5,GTAGGTAA,0.0294
6,GAGCCCGC,-0.239
7,ATCGCATC,-0.0542
8,AGAGTGGC,-0.0629
9,GGCTCCAA,-0.0684
10,GATGAAGA,-0.0381
11,CAGTCGAC,0.157
12,ATAGACCC,0.0393
13,AGTCTGTA,-0.176
14,ACGGATGC,-0.00022
15,TGGATCAA,-0.0373
16,GCATACCA,0.0125
17,ACCCCCGA,-0.164
18,ACCCATGA,-0.0383
19,GGGAACTA,-0.0139
20,GGACGTAA,-0.0155
21,CACGGAGC,-0.056
22,CCAAATCA,0.0273
23,CATACCCC,-0.00337
24,ACCGCGAA,-0.00285
25,GCGACGTA,0.0143

# Retrieved one by one from above (2):
row,Sequence,PBM E-score
18,CTCTGACC,-0.31
12,GAAGTGTA,-0.11

# Next results.

row,Sequence,PBM E-score
1,GTTATCAA,0.0563
2,CTTACTGC,0.0596
3,CCAATAAC,0.142
4,ACGGAACA,0.0638
5,CAAGCTTC,-0.0571
6,ACCGGCTG,-0.285
7,AATAGCTC,-0.0298
8,ATCGATCG,0.15
9,ATGATGGA,0.0917
10,CGACACGC,0.0316
11,AACGTGAA,0.0806
12,GCCCCTCA,-0.318
13,GGTCATAC,-0.0137
14,CTTATGGA,-0.0182
15,ATCAGCGA,0.0403
16,GCAATATA,0.216
17,CTAGACCC,-0.151
18,ATTTCCGA,0.209
19,TGTTTCAA,0.218
20,AAGTCTGC,-0.107
21,AAAGCGCG,-0.00205
22,CTGGAGTA,-0.0124
23,CTGTGCGA,0.0309
24,AAACAGCA,0.163
25,AACAAAGA,0.174

row,Sequence,PBM E-score
1,CTAATCCC,0.0684
2,CAGGCTGG,-0.188
3,ATCCCGGC,-0.0697
4,CTATCGGA,-0.138
5,AAGCACAC,-0.0786
6,ACTAATAA,0.303
7,CGCGTACG,0.152
8,AGTTCTGC,-0.00524
9,AAACCTCC,-0.116
10,AGACCTTG,-0.0663
11,CGATCTAG,-0.155
12,ACTCCGAT,-0.0336
13,ATGGGCTC,-0.188
14,CGCCCATC,-0.181
15,GCTACGGA,-0.122
16,CAACACGC,0.064
17,CGTGAGTC,-0.117
18,ACGCCTAA,0.0456
19,ACCCCCAA,-0.183
20,AGACTTCG,-0.00102
21,GGTGTGAC,-0.227
22,CAACACTC,0.112
23,CACATAAA,0.17
24,ATTGATAC,0.224
25,TAGTCAGA,0.0338

row,Sequence,PBM E-score
1,CGCCCATA,-0.0229
2,GCCGTGTA,0.0141
3,ACGTCATC,0.152
4,GCCGACCC,-0.33
5,ACTGTTGC,0.104
6,GAGTCAAA,-0.177
7,AGCTAAGA,0.00844
8,CCATGGGC,-0.197
9,CATTCTCG,0.0585
10,TAGTTAAA,0.158
11,GGCGGTCA,-0.251
12,CATGATCC,-0.0797
13,GCGCCGAA,0.0489
14,ACCCAGCC,-0.18
15,CAGAGCCC,-0.115
16,CCGTGGGA,-0.337
17,AAAGCCGA,-0.0302
18,CCTACCTA,-0.143
19,AGTCCGTG,-0.28
20,CCTTGACC,-0.0811
21,GGCGAGAA,0.2
22,CTGAACTA,-0.101
23,CGTCGTAG,-0.0554
24,CGAGCGAA,-0.101
25,GTCGAGAC,0.0574

# For reference, some entries already given:
row,Sequence,PBM E-score
20,CCTTGACC,-0.0811
21,GGCGAGAA,0.2
22,CTGAACTA,-0.101
23,CGTCGTAG,-0.0554
24,CGAGCGAA,-0.101

# Remaining list, next part

row,Sequence,PBM E-score
1,TTGCCCAA,-0.00787
2,AATTGCAG,0.0709
3,CGTATGTA,0.108
4,TACTCACA,0.115
5,ACGGCACG,-0.0633
6,GAGGGTCC,-0.276
7,AACTCATG,0.116
8,CGCTCAGC,-0.121
9,GAAATGTA,0.16
10,CGTCTGCA,0.00032
11,CGAGTGAA,-0.0772
12,AAAAAGTT,0.0968
13,GGACATCA,0.0696
14,TGAATTCA,0.232
15,AGATGTTA,0.077
16,CCACGTCA,0.0656
17,GATCGTGA,-0.0036
18,AGATATGA,0.219
19,CAGATACG,0.117
20,AAACGCCT,-0.153
21,AATGTAAC,0.122
22,CCCCGCAC,-0.151
23,CCAATCCG,0.033
24,AGGGTCAC,-0.222
25,GAGGGTTA,-0.126

row,Sequence,PBM E-score
1,TAAATGTA,0.173
2,GGAGAGGA,-0.169
3,AGCAAATC,0.141
4,GTCTGAGA,-0.16
5,CATCTCAA,0.108
6,GACTTCCA,-0.0885
7,CTCGAAGA,-0.198
8,ATCTAGAC,-0.165
9,TGACCGCA,-0.0776
10,CAGAATAC,0.173
11,AAATCTCA,0.142
12,CTGCGAAC,-0.138
13,GTTAGGTA,0.194
14,ATATCGTA,0.128
15,AAGGACAG,0.00055
16,ACAGGAGG,-0.217
17,GCGACGGA,0.0769
18,ATAGAGCC,-0.12
19,AATGGAGG,-0.119
20,AGATATAC,0.0965
21,GTCTTCAC,-0.11
22,CTATCAAG,0.067

# Source: the supplement of paper PMC3334620
